PubChem BioAssay AID1508588 | Peter MacCallum Cancer Centre | 2020
Test: 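Knock-downs boosting vemurafenib effects on melanoma cell growth or lactate release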 (primary screen). Cell system: human WM266.4 melanoma cells (BRAF V600 mutant). Knock-down reagent: siRNA pool against human genes, 40 nM. Timing: 96 h from transfection to read-out. Challenge: vemurafenib 300 nM (about IC25), added 48 h after transfection, for 48 h; comparison arm got DMSO vehicle only. Read-out: 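Cell gain (DAPI nuclei at end minus before drug, mean of two replicates) and medium lactate by absorbance per cell, both as ratio to non-targeting siRNA, also grouped into fold-change classes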. Direction: cell gain with vemurafenib: higher = more cell gain than with non-targeting siRNA; lactate per cell with vemurafenib: higher = more lactate made per cell. Hit rule: 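Enhancement is called by pairing each knock-down's vehicle-arm and drug-arm fold-change classes for viability or glycolysis; which class combinations qualify is not given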. Calls: active = enhances vemurafenib effect; inactive = no enhancement seen.
The deposit covers about 18,000 reagents; this is a random part of them. 790 of them (4.4%) count as active. 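Calls rest on a combination of fold-change classes in drug and vehicle arms, not all shown here.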 The numbers tell different reagents against one gene apart.

target | pool no. | cell gain with vemurafenib | lactate per cell with vemurafenib | Outcome
TRIM24 (tripartite motif containing 24) | 1 | 0.45 | 1.88 | inactive
MEI1 (meiotic double-stranded break formation protein 1) | 1 | 0.62 | 0.94 | inactive
FIRRM (FIGNL1 interacting regulator of recombination and mitosis) | 1 | 0.24 | 0.94 | inactive
SLC4A8 | 1 | 0.64 | 0.55 | inactive
FBN1 (fibrillin 1) | 1 | 0.59 | 0.84 | inactive
RFX5 (regulatory factor X5) | 1 | -0.01 | 1.97 | inactive
AARS2 (alanyl-tRNA synthetase 2, mitochondrial) | 1 | 0.5 | 0.49 | inactive
SANBR (SANT and BTB domain regulator of CSR) | 1 | 0.92 | 0.79 | inactive
CCDC191 (coiled-coil domain containing 191) | 1 | 0.69 | 1.19 | inactive
LGI1 (leucine rich glioma inactivated 1) | 1 | 0.13 | 0.4 | active
PRRC2C (proline rich coiled-coil 2C) | 1 | 0.44 | 1.02 | inactive
SPRR2F (small proline rich protein 2F) | 1 | 0.44 | 1.11 | inactive
OR7D2 (olfactory receptor family 7 subfamily D member 2) | 1 | 0.37 | 2.03 | inactive
ADRA2A (adrenoceptor alpha 2A) | 1 | 0.99 | 0.64 | inactive
GALC (galactosylceramidase) | 1 | 0.68 | 0.71 | inactive
RP9 (RP9 pre-mRNA splicing factor) | 1 | 0.78 | 0.75 | inactive
ST6GALNAC2 (ST6 N-acetylgalactosaminide alpha-2,6-sialyltransferase 2) | 1 | 0.77 | 1.02 | inactive
KLK6 (kallikrein related peptidase 6) | 1 | 0.21 | 2 | inactive
NR1I3 (nuclear receptor subfamily 1 group I member 3) | 1 | 0.68 | 0.94 | inactive
MRTFB (myocardin related transcription factor B) | 1 | 0.54 | 0.46 | inactive
SC5D (sterol-C5-desaturase) | 1 | 0.93 | 0.83 | inactive
AP3S2 (adaptor related protein complex 3 subunit sigma 2) | 1 | 0.83 | 0.94 | inactive
CNBD2 (cyclic nucleotide binding domain containing 2) | 1 | 0.29 | 2.15 | inactive
CDH23 (cadherin related 23) | 1 | 0.34 | 1.29 | inactive
CXXC1 (CXXC finger protein 1) | 1 | 0.11 | 1.6 | inactive
GDI2 (GDP dissociation inhibitor 2) | 1 | 0.71 | 0.9 | inactive
MYBBP1A (MYB binding protein 1a) | 1 | 0.71 | 0.81 | inactive
KLF12 (KLF transcription factor 12) | 1 | 1.03 | 0.89 | inactive
RNF152 (ring finger protein 152) | 1 | 1 | 0.72 | inactive
NUP42 (nucleoporin 42) | 1 | 0.48 | 1.09 | inactive
ZNF317 (zinc finger protein 317) | 1 | 0.12 | 1.01 | inactive
TFB1M (transcription factor B1, mitochondrial) | 1 | 0.52 | 1.68 | inactive
POLR3B (RNA polymerase III subunit B) | 1 | 0.97 | 1 | inactive
ZNF629 (zinc finger protein 629) | 1 | 1.06 | 0.73 | inactive
MYL12A (myosin light chain 12A) | 1 | 0.1 | 0.86 | inactive
RNF19B (ring finger protein 19B) | 1 | 1.01 | 0.96 | inactive
NCOA4 (nuclear receptor coactivator 4) | 1 | 0.65 | 0.6 | inactive
BNIPL (BCL2 interacting protein like) | 1 | 0.64 | 0.7 | inactive
LTBP2 (latent transforming growth factor beta binding protein 2) | 1 | 0.1 | 2.12 | inactive
NDUFAF6 (NADH:ubiquinone oxidoreductase complex assembly factor 6) | 1 | 0.96 | 1 | inactive
SGCD (sarcoglycan delta) | 1 | 0.63 | 0.84 | inactive
TMPRSS12 (transmembrane serine protease 12) | 1 | 0.75 | 1.04 | inactive
ROR2 (ROR family WNT receptor 2) | 1 | 0.96 | 0.42 | inactive
PSMB9 (proteasome 20S subunit beta 9) | 1 | 0.77 | 2 | inactive
GTF3C3 (general transcription factor IIIC subunit 3) | 1 | 0.51 | 1.46 | inactive
ACMSD (aminocarboxymuconate semialdehyde decarboxylase) | 1 | 0.41 | 1.06 | inactive
PDZD8 (PDZ domain containing 8) | 1 | 0.74 | 0.66 | inactive
TBX5 (T-box transcription factor 5) | 1 | 0.86 | 0.97 | inactive
AP5M1 (adaptor related protein complex 5 subunit mu 1) | 1 | 0.4 | 1.21 | inactive
COMMD9 (COMM domain containing 9) | 1 | 0.6 | 0.7 | inactive
COMMD9 (COMM domain containing 9) | 2 | 0.71 | 0.43 | inactive
BNC1 (basonuclin zinc finger protein 1) | 1 | 0.57 | 0.66 | inactive
CALCB (calcitonin related polypeptide beta) | 1 | 0.94 | 0.91 | inactive
TXLNA (taxilin alpha) | 1 | 0.85 | 0.67 | inactive
PITX1 (paired like homeodomain 1) | 1 | 0.25 | 0.67 | active
ZNF831 (zinc finger protein 831) | 1 | 0.54 | 0.21 | inactive
OR14K1 (olfactory receptor family 14 subfamily K member 1) | 1 | 0.9 | 0.33 | inactive
GPR135 (G protein-coupled receptor 135) | 1 | 0.97 | 1.06 | inactive
CIITA (class II major histocompatibility complex transactivator) | 1 | 0.79 | 1.02 | inactive
SPEM2 (SPEM family member 2) | 1 | 0.64 | 1.02 | inactive
HPS5 (HPS5 biogenesis of lysosomal organelles complex 2 subunit 2) | 1 | 1.16 | 0.69 | inactive
ZNF385B (zinc finger protein 385B) | 1 | 0.47 | 0.46 | inactive
H3C11 (H3 clustered histone 11) | 1 | 0.38 | 1.69 | inactive
ETV6 (ETS variant transcription factor 6) | 1 | 0.86 | 0.68 | inactive
MS4A14 (membrane spanning 4-domains A14) | 1 | -0.08 | 0.95 | inactive
ZNF136 (zinc finger protein 136) | 1 | 0.82 | 0.34 | inactive
SFSWAP (splicing factor SWAP) | 1 | 0.16 | 0.52 | inactive
EGR2 (early growth response 2) | 1 | 0.5 | 0.86 | inactive
ZSCAN5B (zinc finger and SCAN domain containing 5B) | 1 | 0.51 | 0.7 | inactive
OR10X1 (olfactory receptor family 10 subfamily X member 1) | 1 | 0.57 | 1.13 | inactive
DPAGT1 (dolichyl-phosphate N-acetylglucosaminephosphotransferase 1) | 1 | 0.92 | 0.26 | inactive
BTBD16 (BTB domain containing 16) | 1 | 0.75 | 0.62 | inactive
KRTAP1-1 (keratin associated protein 1-1) | 1 | 0.44 | 1.19 | inactive
ZNF546 (zinc finger protein 546) | 1 | 0.5 | 0.64 | inactive
CARD8 (caspase recruitment domain family member 8) | 1 | 0.6 | 0.74 | inactive
TRMT10C (tRNA methyltransferase 10C, mitochondrial RNase P subunit) | 1 | 1.06 | 0.8 | inactive
RIMKLA (ribosomal modification protein rimK like family member A) | 1 | 0.49 | 1.69 | inactive
ATN1 (atrophin 1) | 1 | 0.24 | 0.92 | inactive
BCLAF1 (BCL2 associated transcription factor 1) | 1 | 0.43 | 0.68 | active
SERTAD4 (SERTA domain containing 4) | 1 | 0.28 | 1.31 | inactive
PRKCSH (PRKCSH beta subunit of glucosidase II) | 1 | 0.25 | 1.21 | inactive
SCUBE1 (signal peptide, CUB domain and EGF like domain containing 1) | 1 | 0.9 | 1.2 | inactive
NRSN2 (neurensin 2) | 1 | 0.67 | 1.43 | inactive
FCGR1BP (Fc gamma receptor Ib, pseudogene) | 1 | 0.18 | 1.25 | inactive
ARK2N (arkadia (RNF111) N-terminal like PKA signaling regulator 2N) | 1 | 0.35 | 0.66 | inactive
DAGLB (diacylglycerol lipase beta) | 1 | 0.96 | 0.7 | inactive
ZNF181 (zinc finger protein 181) | 1 | 0.67 | 0.83 | inactive
ATP5MC2 (ATP synthase membrane subunit c locus 2) | 1 | 0.86 | 0.78 | inactive
ARG1 (arginase 1) | 1 | 0.87 | 1.49 | inactive
NRM (nurim) | 1 | 1.02 | 0.72 | inactive
VPS29 (VPS29 retromer complex component) | 1 | 0.63 | 0.82 | inactive
PADI2 (peptidyl arginine deiminase 2) | 1 | 0.62 | 1.6 | inactive
FUT5 (fucosyltransferase 5) | 1 | 0.27 | 0.73 | inactive
ABHD17C (abhydrolase domain containing 17C, depalmitoylase) | 1 | 0.28 | 1.02 | inactive
HOXC12 (homeobox C12) | 1 | 0.49 | 0.9 | inactive
ANXA2R (annexin A2 receptor) | 1 | 1.07 | 0.57 | inactive
ZCCHC8 (zinc finger CCHC-type containing 8) | 1 | 0.85 | 0.84 | inactive
NTAQ1 (N-terminal glutamine amidase 1) | 1 | 0.83 | 0.49 | active
OR6K3 (olfactory receptor family 6 subfamily K member 3) | 1 | 0.69 | 0.97 | inactive
PICALM (phosphatidylinositol binding clathrin assembly protein) | 1 | 1 | 0.61 | inactive
KPTN (kaptin, actin binding protein) | 1 | 0.29 | 0.11 | active
INTS2 (integrator complex subunit 2) | 1 | 0.21 | 1.81 | inactive
VPS37A (VPS37A subunit of ESCRT-I) | 1 | 0.83 | 0.56 | inactive
COA8 (cytochrome c oxidase assembly factor 8) | 1 | 0.61 | 1.11 | inactive
XIRP1 (xin actin binding repeat containing 1) | 1 | -0.02 | 2.82 | inactive
APOA1 (apolipoprotein A1) | 1 | 0.88 | 0.57 | inactive
CCDC185 (coiled-coil domain containing 185) | 1 | 0.55 | 1.08 | inactive

Called active (from the list above):
target | pool no. | cell gain with vemurafenib | lactate per cell with vemurafenib | Outcome
LGI1 (leucine rich glioma inactivated 1) | 1 | 0.13 | 0.4 | active
PITX1 (paired like homeodomain 1) | 1 | 0.25 | 0.67 | active
BCLAF1 (BCL2 associated transcription factor 1) | 1 | 0.43 | 0.68 | active
NTAQ1 (N-terminal glutamine amidase 1) | 1 | 0.83 | 0.49 | active
KPTN (kaptin, actin binding protein) | 1 | 0.29 | 0.11 | active
